Read-outs that look alike come from different tables or passages of the source. Results are given in words; binding and its absence hold for the method and conditions named. In cells and extracts the contact can be indirect. Some results given as binding are weak or reduced against the parent protein; the word gives no strength. For some assays here: Sequences can lack the tags named with a protein. Values belong to the molecule of their own block, whether it stands above or below them.
Legend:
Assay in all cases: pull-down
GST-human GCN5 (human) [1] = target: GST-human GCN5 (human) (UniProt Q92830)
GST-human TADA2B (human) [2] = target: T1, GST-human TADA2B (human) (UniProt Q86TJ2)
T1 sequence: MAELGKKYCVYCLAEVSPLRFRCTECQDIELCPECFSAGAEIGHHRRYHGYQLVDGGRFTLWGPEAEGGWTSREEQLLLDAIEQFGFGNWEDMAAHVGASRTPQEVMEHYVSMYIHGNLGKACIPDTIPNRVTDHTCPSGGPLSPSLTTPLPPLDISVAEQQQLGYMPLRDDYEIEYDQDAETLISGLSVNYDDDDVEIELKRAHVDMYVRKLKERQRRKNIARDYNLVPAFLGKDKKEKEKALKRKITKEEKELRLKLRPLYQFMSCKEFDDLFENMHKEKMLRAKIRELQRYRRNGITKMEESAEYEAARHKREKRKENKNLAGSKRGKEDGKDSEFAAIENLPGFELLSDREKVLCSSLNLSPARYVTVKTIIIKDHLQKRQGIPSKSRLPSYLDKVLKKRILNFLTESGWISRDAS

By UniProt entry, the sequences of proteins in these tests, tags left out. Where a name states a change or a piece, a line headed by the entry shows the natural chain unless it says otherwise. Chains listed by the source or under a name are the forms on record and can include a tag or linker.
UniProt Q92830: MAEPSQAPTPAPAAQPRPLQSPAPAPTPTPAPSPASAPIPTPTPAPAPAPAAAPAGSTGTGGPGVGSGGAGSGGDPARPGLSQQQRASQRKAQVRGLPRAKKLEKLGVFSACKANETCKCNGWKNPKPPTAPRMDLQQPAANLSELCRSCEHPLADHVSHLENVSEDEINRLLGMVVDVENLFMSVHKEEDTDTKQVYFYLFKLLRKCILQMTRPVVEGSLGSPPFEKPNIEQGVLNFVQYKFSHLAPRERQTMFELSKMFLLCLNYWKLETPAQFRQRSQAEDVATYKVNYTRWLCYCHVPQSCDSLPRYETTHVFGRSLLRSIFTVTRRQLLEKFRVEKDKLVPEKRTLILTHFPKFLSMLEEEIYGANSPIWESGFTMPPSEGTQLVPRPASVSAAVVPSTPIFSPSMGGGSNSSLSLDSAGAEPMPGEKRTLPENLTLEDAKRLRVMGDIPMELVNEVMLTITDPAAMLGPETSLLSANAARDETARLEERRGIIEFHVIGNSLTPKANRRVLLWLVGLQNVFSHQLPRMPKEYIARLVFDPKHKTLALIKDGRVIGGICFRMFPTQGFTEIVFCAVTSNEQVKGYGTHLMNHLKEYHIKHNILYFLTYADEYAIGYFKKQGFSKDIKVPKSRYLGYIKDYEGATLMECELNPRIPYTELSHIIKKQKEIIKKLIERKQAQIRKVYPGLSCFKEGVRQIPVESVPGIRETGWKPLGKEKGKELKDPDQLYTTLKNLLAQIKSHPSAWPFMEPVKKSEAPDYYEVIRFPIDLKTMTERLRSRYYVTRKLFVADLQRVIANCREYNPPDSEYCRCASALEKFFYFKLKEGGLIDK
UniProt Q60596: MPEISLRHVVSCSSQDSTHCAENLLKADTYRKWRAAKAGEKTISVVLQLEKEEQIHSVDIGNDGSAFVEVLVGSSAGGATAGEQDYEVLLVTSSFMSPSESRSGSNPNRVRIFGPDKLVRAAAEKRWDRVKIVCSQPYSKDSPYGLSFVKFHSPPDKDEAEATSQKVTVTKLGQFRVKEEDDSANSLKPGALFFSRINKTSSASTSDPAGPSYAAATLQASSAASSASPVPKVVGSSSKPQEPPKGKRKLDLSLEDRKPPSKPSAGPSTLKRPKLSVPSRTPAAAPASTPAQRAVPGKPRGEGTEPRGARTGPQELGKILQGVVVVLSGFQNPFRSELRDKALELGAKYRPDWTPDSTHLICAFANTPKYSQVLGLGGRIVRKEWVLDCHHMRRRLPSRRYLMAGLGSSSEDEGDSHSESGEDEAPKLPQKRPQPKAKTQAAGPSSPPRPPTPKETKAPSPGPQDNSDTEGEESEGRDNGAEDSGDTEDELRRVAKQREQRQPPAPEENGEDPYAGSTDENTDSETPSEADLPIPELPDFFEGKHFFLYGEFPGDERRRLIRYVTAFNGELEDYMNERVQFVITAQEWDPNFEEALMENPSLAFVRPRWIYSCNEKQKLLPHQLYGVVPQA
UniProt P18887: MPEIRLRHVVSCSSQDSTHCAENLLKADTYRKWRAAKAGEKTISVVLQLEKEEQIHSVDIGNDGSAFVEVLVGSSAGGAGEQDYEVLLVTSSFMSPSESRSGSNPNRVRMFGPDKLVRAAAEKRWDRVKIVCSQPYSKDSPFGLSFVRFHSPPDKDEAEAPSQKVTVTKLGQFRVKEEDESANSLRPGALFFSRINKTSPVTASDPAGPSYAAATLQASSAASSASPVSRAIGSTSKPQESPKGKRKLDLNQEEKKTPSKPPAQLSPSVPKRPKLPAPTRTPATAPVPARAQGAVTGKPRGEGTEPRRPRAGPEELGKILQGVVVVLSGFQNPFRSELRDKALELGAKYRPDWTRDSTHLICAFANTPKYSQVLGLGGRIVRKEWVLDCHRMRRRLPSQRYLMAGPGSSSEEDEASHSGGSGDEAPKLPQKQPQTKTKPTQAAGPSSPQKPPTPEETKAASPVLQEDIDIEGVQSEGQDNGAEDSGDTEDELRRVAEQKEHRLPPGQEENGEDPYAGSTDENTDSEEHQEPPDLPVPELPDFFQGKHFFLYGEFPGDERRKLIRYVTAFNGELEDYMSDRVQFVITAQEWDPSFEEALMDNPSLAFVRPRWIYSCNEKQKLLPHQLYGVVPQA
SFB-tagged XRCC1 p.Gln399Arg (c.1196A>G) (P18887, form named): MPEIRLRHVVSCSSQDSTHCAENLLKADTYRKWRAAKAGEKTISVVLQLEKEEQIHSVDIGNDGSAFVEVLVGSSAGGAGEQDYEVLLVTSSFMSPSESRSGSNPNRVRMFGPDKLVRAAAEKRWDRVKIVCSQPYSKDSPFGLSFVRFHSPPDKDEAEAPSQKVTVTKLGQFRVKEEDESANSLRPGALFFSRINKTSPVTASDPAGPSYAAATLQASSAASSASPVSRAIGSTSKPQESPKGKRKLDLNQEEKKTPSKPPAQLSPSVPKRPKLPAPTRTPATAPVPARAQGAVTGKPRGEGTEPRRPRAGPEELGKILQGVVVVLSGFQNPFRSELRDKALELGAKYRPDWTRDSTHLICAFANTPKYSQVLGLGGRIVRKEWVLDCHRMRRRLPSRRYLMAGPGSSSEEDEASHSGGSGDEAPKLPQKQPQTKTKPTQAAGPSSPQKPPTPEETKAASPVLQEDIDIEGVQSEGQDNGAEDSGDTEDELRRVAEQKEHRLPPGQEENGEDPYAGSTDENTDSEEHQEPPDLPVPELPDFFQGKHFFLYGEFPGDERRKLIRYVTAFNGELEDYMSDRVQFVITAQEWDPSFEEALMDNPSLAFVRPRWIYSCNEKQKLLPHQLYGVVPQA
SFB-tagged XRCC1 p.Lys431Asn (c.1293G>C) (P18887, form named): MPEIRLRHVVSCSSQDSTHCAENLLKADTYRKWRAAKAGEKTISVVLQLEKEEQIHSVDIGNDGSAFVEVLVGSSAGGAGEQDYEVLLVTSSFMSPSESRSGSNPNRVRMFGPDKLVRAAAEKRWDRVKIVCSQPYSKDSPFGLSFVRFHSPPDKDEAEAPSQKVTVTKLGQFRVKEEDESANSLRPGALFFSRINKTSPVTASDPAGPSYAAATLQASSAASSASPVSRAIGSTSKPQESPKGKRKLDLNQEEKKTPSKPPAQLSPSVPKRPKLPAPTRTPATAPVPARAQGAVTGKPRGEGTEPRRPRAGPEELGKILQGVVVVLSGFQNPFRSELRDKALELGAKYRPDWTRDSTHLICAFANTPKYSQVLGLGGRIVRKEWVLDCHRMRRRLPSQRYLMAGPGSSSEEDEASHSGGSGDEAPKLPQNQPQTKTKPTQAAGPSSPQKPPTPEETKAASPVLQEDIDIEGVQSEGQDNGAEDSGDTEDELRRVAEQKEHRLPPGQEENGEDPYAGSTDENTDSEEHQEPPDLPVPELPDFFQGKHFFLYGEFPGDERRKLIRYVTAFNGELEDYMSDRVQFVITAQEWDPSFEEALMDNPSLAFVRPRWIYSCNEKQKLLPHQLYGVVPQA
SFB-tagged XRCC1 p.Arg580Trp (c.1738C>T) (P18887, form named): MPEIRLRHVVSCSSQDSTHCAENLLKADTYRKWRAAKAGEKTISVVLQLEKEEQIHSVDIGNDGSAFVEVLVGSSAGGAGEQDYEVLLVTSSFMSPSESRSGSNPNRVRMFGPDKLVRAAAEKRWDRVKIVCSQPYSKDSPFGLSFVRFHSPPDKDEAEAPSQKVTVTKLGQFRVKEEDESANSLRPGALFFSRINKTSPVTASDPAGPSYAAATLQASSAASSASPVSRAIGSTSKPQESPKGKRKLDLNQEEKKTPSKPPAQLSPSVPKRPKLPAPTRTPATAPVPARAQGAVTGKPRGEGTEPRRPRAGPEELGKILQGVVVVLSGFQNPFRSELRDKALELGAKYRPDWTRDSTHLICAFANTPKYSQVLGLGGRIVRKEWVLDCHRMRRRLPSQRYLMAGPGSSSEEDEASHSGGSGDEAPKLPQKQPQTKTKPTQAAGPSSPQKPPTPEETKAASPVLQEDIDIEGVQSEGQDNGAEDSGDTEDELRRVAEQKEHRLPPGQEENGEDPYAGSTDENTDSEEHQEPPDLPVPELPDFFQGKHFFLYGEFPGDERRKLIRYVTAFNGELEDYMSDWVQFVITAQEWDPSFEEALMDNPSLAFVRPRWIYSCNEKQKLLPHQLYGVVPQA
UniProt Q9JLV6: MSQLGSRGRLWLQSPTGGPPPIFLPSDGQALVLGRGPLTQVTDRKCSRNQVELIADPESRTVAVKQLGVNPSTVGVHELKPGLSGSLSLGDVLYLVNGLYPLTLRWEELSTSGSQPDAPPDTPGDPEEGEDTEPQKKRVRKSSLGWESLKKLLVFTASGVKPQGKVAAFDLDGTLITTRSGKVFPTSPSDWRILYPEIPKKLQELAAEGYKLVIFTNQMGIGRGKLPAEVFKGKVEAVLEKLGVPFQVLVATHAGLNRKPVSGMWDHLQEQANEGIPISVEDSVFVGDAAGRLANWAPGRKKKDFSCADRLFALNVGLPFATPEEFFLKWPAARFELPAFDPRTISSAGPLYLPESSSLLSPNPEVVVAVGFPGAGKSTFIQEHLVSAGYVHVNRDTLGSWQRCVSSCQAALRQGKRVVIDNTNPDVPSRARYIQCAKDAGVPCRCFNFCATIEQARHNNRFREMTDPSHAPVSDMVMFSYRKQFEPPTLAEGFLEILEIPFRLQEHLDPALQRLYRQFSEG

GST-human GCN5 (human) [3] = target: GST-human GCN5 (human) (UniProt Q92830); remark: listed apart in the source
[4] = target: T2, SFB-tagged TADA2B (human) (UniProt Q86TJ2)
T2 sequence: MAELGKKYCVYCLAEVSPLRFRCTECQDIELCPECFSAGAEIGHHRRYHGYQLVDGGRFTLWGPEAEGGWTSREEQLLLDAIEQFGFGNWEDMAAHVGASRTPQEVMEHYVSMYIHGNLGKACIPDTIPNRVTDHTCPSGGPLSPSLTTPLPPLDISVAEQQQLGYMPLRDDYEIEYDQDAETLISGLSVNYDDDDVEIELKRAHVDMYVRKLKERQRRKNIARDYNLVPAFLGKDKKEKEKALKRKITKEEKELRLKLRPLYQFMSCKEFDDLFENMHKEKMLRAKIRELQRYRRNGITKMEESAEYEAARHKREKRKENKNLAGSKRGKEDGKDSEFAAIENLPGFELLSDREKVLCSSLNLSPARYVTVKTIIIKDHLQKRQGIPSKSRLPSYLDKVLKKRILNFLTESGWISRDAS

SFB-tagged GCN5 (human) [5] = target: SFB-tagged GCN5 (human) (UniProt Q92830)
GST-human TADA2B (human) [6] = target: T1, GST-human TADA2B (human); remark: listed apart in the source
GST-mouse XRCC1 (mouse) [7] = target: GST-mouse XRCC1 (mouse) (UniProt Q60596)
GST-human XRCC1 (human) [8] = target: GST-human XRCC1 (human) (UniProt P18887)
SFB-tagged XRCC1 (human) [9] = target: SFB-tagged XRCC1 (human) (UniProt P18887)
[10] = target: SFB-tagged XRCC1 p.Gln399Arg (c.1196A>G) (human) (UniProt P18887)
SFB-tagged XRCC1 (human) [11] = target: SFB-tagged XRCC1 (human) (UniProt P18887); remark: listed apart in the source
GST-human XRCC1 (human) [12] = target: GST-human XRCC1 (human) (UniProt P18887); remark: listed apart in the source
[13] = target: SFB-tagged XRCC1 p.Lys431Asn (c.1293G>C) (human) (UniProt P18887)
[14] = target: SFB-tagged XRCC1 p.Arg580Trp (c.1738C>T) (human) (UniProt P18887)
SFB-tagged GCN5 (human) [15] = target: SFB-tagged GCN5 (human) (UniProt Q92830); remark: listed apart in the source
GST-human GCN5 (human) [16] = target: GST-human GCN5 (human) (UniProt Q92830); remark: listed apart in the source
[17] = target: SFB-tagged XRCC1 p.Gln399Arg (c.1196A>G) (human) (UniProt P18887); remark: listed apart in the source
SFB-tagged GCN5 (human) [18] = target: SFB-tagged GCN5 (human) (UniProt Q92830); remark: listed apart in the source
SFB-tagged XRCC1 (human) [19] = target: SFB-tagged XRCC1 (human) (UniProt P18887); remark: listed apart in the source
GST-human XRCC1 (human) [20] = target: GST-human XRCC1 (human) (UniProt P18887); remark: listed apart in the source
[21] = target: SFB-tagged XRCC1 p.Lys431Asn (c.1293G>C) (human) (UniProt P18887); remark: listed apart in the source
[22] = target: SFB-tagged XRCC1 p.Arg580Trp (c.1738C>T) (human) (UniProt P18887); remark: listed apart in the source
GST-mouse XRCC1 (mouse) [23] = target: GST-mouse XRCC1 (mouse) (UniProt Q60596); remark: listed apart in the source

binding (GST-human GCN5 (human) [1]): binds
binding (GST-human TADA2B (human) [2]): binds
binding (GST-human GCN5 (human) [3]): binds
binding [4]: binds
binding (SFB-tagged GCN5 (human) [5]): binds
binding (GST-human TADA2B (human) [6]): binds
Molecule: XRCC1 (human, endogenous) (from UniProt P18887 1-633)

binding (GST-mouse XRCC1 (mouse) [7]): binds
Molecule: PNKP (mouse, endogenous) (from UniProt Q9JLV6 1-522)

binding (GST-human XRCC1 (human) [8]): binds
binding (SFB-tagged XRCC1 (human) [9]): binds
binding [10]: binds
binding [4]: binds
binding (SFB-tagged XRCC1 (human) [11]): binds
binding (GST-human XRCC1 (human) [12]): binds
binding (GST-human TADA2B (human) [6]): binds
binding [13]: binds
binding [14]: binds
Molecule: GCN5 (human, endogenous) (from UniProt Q92830 1-837)

binding (SFB-tagged GCN5 (human) [15]): binds
binding (SFB-tagged XRCC1 (human) [9]): binds
binding (GST-human GCN5 (human) [16]): binds
binding [17]: binds
binding (SFB-tagged GCN5 (human) [18]): binds
binding (SFB-tagged XRCC1 (human) [19]): binds
binding (GST-human XRCC1 (human) [20]): binds
binding [21]: binds
binding [22]: no binding
B1: TADA2B (human, endogenous) (protein, UniProt Q86TJ2 1-420)
chain: MAELGKKYCVYCLAEVSPLRFRCTECQDIELCPECFSAGAEIGHHRRYHGYQLVDGGRFTLWGPEAEGGWTSREEQLLLDAIEQFGFGNWEDMAAHVGASRTPQEVMEHYVSMYIHGNLGKACIPDTIPNRVTDHTCPSGGPLSPSLTTPLPPLDISVAEQQQLGYMPLRDDYEIEYDQDAETLISGLSVNYDDDDVEIELKRAHVDMYVRKLKERQRRKNIARDYNLVPAFLGKDKKEKEKALKRKITKEEKELRLKLRPLYQFMSCKEFDDLFENMHKEKMLRAKIRELQRYRRNGITKMEESAEYEAARHKREKRKENKNLAGSKRGKEDGKDSEFAAIENLPGFELLSDREKVLCSSLNLSPARYVTVKTIIIKDHLQKRQGIPSKSRLPSYLDKVLKKRILNFLTESGWISRDAS

binding (GST-mouse XRCC1 (mouse) [23]): binds
B2: LIG3 (mouse, endogenous) (protein, UniProt P97386 1-1015)
chain: MTLAFKILFPRNLCALGRKELCLFPEQNRWAAISQFSQWSETNLLGGCCLLQRRKPVLALQRGHLRPRATHLTFWPGSHVGLCTGPCAMAEQRFCVDYAKRGTAGCKKCKEKIVKGVCRIGKVVPNPFSESGGDMKEWYHIKCMFEKLERARATTKKIEDLTELEGWEELEDNEKEQISQHIADLSSKAAATPKKKAAVQAKLTTTGQVTSPVKGASFITSTNPRKFSGFSAAKPNNSEQAPSSPAPGTSLSASKCDPKHKDCLLREFRKLCAMVAENPSYNTKTQIIHDFLQKGSTGGFSDGFHGDVYLTVKLLLPGVIKSVYNLNDKQIVKLFSRIFNCNPDDMARDLEQGDVSETIRIFFEQSKSFPPAAKSLLTIQEVDAFLLHLSKLTKEDEQQQALQDIASRCTANDLKCIIRLIKHDLKMNSGAKHVLDALDPNAYEAFKASRNLQDVVERVLHNEQEVEKDPGRRRALRVQASLMTPVQPMLAEACKSIEYAMKKCPNGMFSEIKYDGERVQVHKKGDHFSYFSRSLKPVLPHKVAHFKDYIPKAFPGGQSMILDSEVLLIDNNTGKPLPFGTLGVHKKAAFQDANVCLFVFDCIYFNDVSLMDRPLCERRKFLHDNMVEIRNRIMFSEMKQVTKASDLADMINRVIREGLEGLVLKDVKGTYEPGKRHWLKVKKDYLNEGAMADTADLVVLGAFYGQGSKGGMMSIFLMGCYDPDSQKWCTVTKCAGGHDDATLARLQKELVMVKISKDPSKIPSWLKINKIYYPDFIVPDPKKAAVWEITGAEFSRSEAHTADGISIRFPRCTRIRDDKDWKSATNLPQLKELYQLSKDKADFAVVAGDEASPTTGGSSGENEGTAGSAGPCKGPPSKSSASAKTTEQKLNSPSSRGGIKPIPKHSPMKPGEKLAVKSSPVKVGMKRKATDETPCLKKVLLDVFTGVRLYLPPSTPDFKRLKRYFVAFDGDLVQEFDMGSATHVLGNREKNTDAQLVSSEWIWACIRKRRLIAPC

From publication doi:10.1101/2025.08.24.672030
